Test results from the supplement of paper PMC8728848.
The list shows a part of the results.

Columns and labels:
Test in all cases: glycan array binding signal (z-score within array); higher = stronger binding
Conditions in all cases: glycan notation: IUPAC condensed, linker removed
[1] = target: GlcNAc(b1-4)[GlcNAc(b1-6)]GalNAc
How it was run: (§1)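 Negative Z-scores can be read as non-binding. The Z-score is calculated within each array and then averaged across arrays of one protein sequence at different concentrations or buffers and across linkers. Arrays, 3228 in all, were curated from the Consortium for Functional Glycomics database and kept only where the protein sequence was available.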

[2] = target: GlcNAc(b1-6)Gal(b1-4)GlcNAc
How it was run: as §1

[3] = target: GlcNAc(b1-6)GalNAc
How it was run: as §1

[4] = target: GlcNAc6S(b1-3)Gal(b1-4)GlcNAc
How it was run: as §1

[5] = target: Kdn(a2-3)Gal(b1-3)GalNAc
How it was run: as §1

[6] = target: Kdn(a2-3)Gal(b1-3)GlcNAc
How it was run: as §1

[7] = target: Kdn(a2-3)Gal(b1-4)Glc
How it was run: as §1

[8] = target: Kdn(a2-3)Gal(b1-4)GlcNAc
How it was run: as §1

[9] = target: Kdn(a2-3)Gal(b1-4)[Fuc(a1-3)]GlcNAc
How it was run: as §1

[10] = target: Kdn(a2-6)Gal(b1-4)GlcNAc
How it was run: as §1

[11] = target: Man(a1-2)Man(a1-2)Man(a1-3)Man
How it was run: as §1

[12] = target: Man(a1-2)Man(a1-2)Man(a1-6)[Man(a1-3)]Man
How it was run: as §1

[13] = target: Man(a1-2)Man(a1-3)Man
How it was run: as §1

[14] = target: Man(a1-2)Man(a1-3)[Man(a1-2)Man(a1-6)]Man
How it was run: as §1

[15] = target: Man(a1-2)Man(a1-3)[Man(a1-2)Man(a1-6)]Man(a1-6)[Man(a1-2)Man(a1-2)Man(a1-3)]Man
How it was run: as §1

[16] = target: Man(a1-2)Man(a1-3)[Man(a1-2)Man(a1-6)]Man(a1-6)[Man(a1-2)Man(a1-2)Man(a1-3)]Man(b1-4)GlcNAc(b1-4)GlcNAc
How it was run: as §1

[17] = target: Man(a1-2)Man(a1-3)[Man(a1-6)]Man(a1-6)[Man(a1-2)Man(a1-3)]Man(b1-4)GlcNAc(b1-4)GlcNAc
How it was run: as §1

[18] = target: Man(a1-2)Man(a1-6)[Man(a1-3)]Man(a1-6)[Man(a1-2)Man(a1-2)Man(a1-3)]Man
How it was run: as §1

[19] = target: Man(a1-2)Man(a1-6)[Man(a1-3)]Man(a1-6)[Man(a1-2)Man(a1-2)Man(a1-3)]Man(b1-4)GlcNAc(b1-4)GlcNAc
How it was run: as §1

[20] = target: Man(a1-3)[Man(a1-6)]Man
How it was run: as §1

[21] = target: Man(a1-3)[Man(a1-6)]Man(a1-6)[Man(a1-2)Man(a1-3)]Man(b1-4)GlcNAc(b1-4)GlcNAc
How it was run: as §1

[22] = target: Man(a1-3)[Man(a1-6)]Man(a1-6)[Man(a1-3)]Man
How it was run: as §1

[23] = target: Man(a1-3)[Man(a1-6)]Man(a1-6)[Man(a1-3)]Man(b1-4)GlcNAc(b1-4)GlcNAc
How it was run: as §1

[24] = target: Man(a1-3)[Man(a1-6)]Man(b1-4)GlcNAc(b1-4)GlcNAc
How it was run: as §1

[25] = target: Man(a1-3)[Man(a1-6)]Man(b1-4)GlcNAc(b1-4)[Fuc(a1-6)]GlcNAc
How it was run: as §1

[26] = target: Man(a1-6)Man
How it was run: as §1

[27] = target: Man(b1-4)GlcNAc
How it was run: as §1

[28] = target: MurNAc(b1-4)GlcNAc
How it was run: as §1

[29] = target: Neu5Ac(a2-3)Gal
How it was run: as §1

[30] = target: Neu5Ac(a2-3)Gal(b1-3)GalNAc
How it was run: as §1

[31] = target: Neu5Ac(a2-3)Gal(b1-3)GalNAc(b1-3)Gal(a1-4)Gal(b1-4)Glc
How it was run: as §1

[32] = target: Neu5Ac(a2-3)Gal(b1-3)GalNAc(b1-4)[Neu5Ac(a2-3)]Gal(b1-4)Glc
How it was run: as §1

[33] = target: Neu5Ac(a2-3)Gal(b1-3)GalNAc(b1-4)[Neu5Ac(a2-8)Neu5Ac(a2-3)]Gal(b1-4)Glc
How it was run: as §1

[34] = target: Neu5Ac(a2-3)Gal(b1-3)GalNAc6S
How it was run: as §1

[35] = target: Neu5Ac(a2-3)Gal(b1-3)GlcNAc
How it was run: as §1

[36] = target: Neu5Ac(a2-3)Gal(b1-3)GlcNAc(b1-2)Man
How it was run: as §1

[37] = target: Neu5Ac(a2-3)Gal(b1-3)GlcNAc(b1-2)Man(a1-3)[GlcNAc(b1-4)][Neu5Ac(a2-3)Gal(b1-3)GlcNAc(b1-2)Man(a1-6)]Man(b1-4)GlcNAc(b1-4)GlcNAc
How it was run: as §1

B1: Epf (Streptococcus pyogenes) (protein)
chain: GDHGPEFNGVMVVKAAEAEELPDDLMNFKGTWEVSADGSSGRFFSKGATDSYVFHLIPAKDVKKPGWREHNEVKDSYIKIDKQSIAARYKTSTTAPYSVAFKVNTKSLIKDHDYKITFEQGQIASGITVDYRIGSAFNKTTDDSFKISDESKYASNVKIEGEEQGFKQREQGDKTISFRTLKEGPMSLVLLSKVEKKPQGDLDVEFKNLKIIDVTNPSQLDKGVAYVGNKNVQLTLKSDDGRTNFEGDEISLFNSRGELLQTVTVTKDQQNPISITLSEDQAKSLKNKEKLKVSIKQKQSKKTSKDFFFEVGIDPKVEAKQKEKLLELDKVKKQIEDSINGDAWLPEKPVDLQGDHGLSAWSHPQFEK
glycan array binding signal (z-score) [1]: 3.11 | glycan array binding signal (z-score) [2]: -0.433 | glycan array binding signal (z-score) [3]: 1.21 | glycan array binding signal (z-score) [4]: 1.98 | glycan array binding signal (z-score) [5]: 0.837 | glycan array binding signal (z-score) [6]: 0.078 | glycan array binding signal (z-score) [7]: 0.077 | glycan array binding signal (z-score) [8]: 0.508 | glycan array binding signal (z-score) [9]: -0.049 | glycan array binding signal (z-score) [10]: 0.586 | glycan array binding signal (z-score) [11]: -0.882 | glycan array binding signal (z-score) [12]: 1.01 | glycan array binding signal (z-score) [13]: -0.554 | glycan array binding signal (z-score) [14]: -0.611 | glycan array binding signal (z-score) [15]: -0.339 | glycan array binding signal (z-score) [16]: -0.363 | glycan array binding signal (z-score) [17]: -1.41 | glycan array binding signal (z-score) [18]: 1.21 | glycan array binding signal (z-score) [19]: -0.19 | glycan array binding signal (z-score) [20]: -0.795 | glycan array binding signal (z-score) [21]: -0.626 | glycan array binding signal (z-score) [22]: -0.569 | glycan array binding signal (z-score) [23]: -1.06 | glycan array binding signal (z-score) [24]: 0.659 | glycan array binding signal (z-score) [25]: -0.773 | glycan array binding signal (z-score) [26]: -0.914 | glycan array binding signal (z-score) [27]: -0.471 | glycan array binding signal (z-score) [28]: 1.14 | glycan array binding signal (z-score) [29]: -0.169 | glycan array binding signal (z-score) [30]: -1.24 | glycan array binding signal (z-score) [31]: 0.129 | glycan array binding signal (z-score) [32]: 0.303 | glycan array binding signal (z-score) [33]: -0.085 | glycan array binding signal (z-score) [34]: 1.65 | glycan array binding signal (z-score) [35]: -0.926 | glycan array binding signal (z-score) [36]: -2.07 | glycan array binding signal (z-score) [37]: -1.33
